{"source": "patent US20170173106A1", "about": "“Polypeptide Fragments of 168A-T2 and Compositions Comprising Them for Use in Treating Cancer” (GENE SIGNAL INTERNATIONAL SA, priority 2014, published 2017)", "key": {"endostatin [1]": {"test_system": "endostatin", "experiment": "Circulating endostatin in sera of NCI-H460 xenograft mice (ELISA)", "assay_type": "in vivo", "settings": "P3 10 mg/kg"}, "CD9P-1 [2]": {"biological_target": "T1, CD9P-1 (Homo sapiens, UniProt Q9P2B2)", "T1 sequence (Q9P2B2 26-879)": "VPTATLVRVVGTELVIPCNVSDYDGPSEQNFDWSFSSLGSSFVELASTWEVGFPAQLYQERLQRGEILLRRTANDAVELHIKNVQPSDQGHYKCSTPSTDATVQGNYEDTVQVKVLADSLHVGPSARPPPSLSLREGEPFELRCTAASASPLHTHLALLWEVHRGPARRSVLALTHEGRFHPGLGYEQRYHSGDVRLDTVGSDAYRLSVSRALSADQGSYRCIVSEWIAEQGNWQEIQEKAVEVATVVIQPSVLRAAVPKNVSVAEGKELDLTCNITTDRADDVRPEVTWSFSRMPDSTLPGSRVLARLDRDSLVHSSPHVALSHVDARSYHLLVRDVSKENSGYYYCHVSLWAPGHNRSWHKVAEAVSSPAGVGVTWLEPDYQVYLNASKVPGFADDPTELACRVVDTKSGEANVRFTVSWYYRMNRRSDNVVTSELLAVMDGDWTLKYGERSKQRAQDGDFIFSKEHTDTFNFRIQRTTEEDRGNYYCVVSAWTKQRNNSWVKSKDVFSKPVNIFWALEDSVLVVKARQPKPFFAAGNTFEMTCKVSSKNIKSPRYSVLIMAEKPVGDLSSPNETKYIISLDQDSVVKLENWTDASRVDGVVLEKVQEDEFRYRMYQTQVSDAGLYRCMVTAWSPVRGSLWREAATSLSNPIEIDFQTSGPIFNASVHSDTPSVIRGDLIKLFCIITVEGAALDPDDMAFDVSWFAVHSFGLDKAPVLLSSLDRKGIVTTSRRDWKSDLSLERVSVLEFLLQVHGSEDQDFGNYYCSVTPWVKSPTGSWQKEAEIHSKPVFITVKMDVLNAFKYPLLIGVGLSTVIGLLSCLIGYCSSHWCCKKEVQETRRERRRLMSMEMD", "experiment": "CD9P-1 level in HUVECs (Western blot)", "assay_type": "cell-based", "parameters": "endogenous in cells; host or cells: HUVEC", "settings": "P3 33 μM; up to 5 h incubation"}, "CD9": {"biological_target": "T2, CD9 (Homo sapiens, UniProt P21926)", "T2 construct": "endogenous in cells; host or cells: HUVEC", "T2 sequence (P21926 1-228)": "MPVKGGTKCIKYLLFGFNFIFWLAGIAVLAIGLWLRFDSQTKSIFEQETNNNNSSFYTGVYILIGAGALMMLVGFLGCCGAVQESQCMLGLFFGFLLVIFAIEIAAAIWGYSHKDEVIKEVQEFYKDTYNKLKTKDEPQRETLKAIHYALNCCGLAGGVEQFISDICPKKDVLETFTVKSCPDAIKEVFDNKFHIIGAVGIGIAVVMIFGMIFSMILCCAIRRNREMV", "experiment": "CD9 level in HUVECs (Western blot, FACS)", "assay_type": "cell-based", "settings": "P3 33 μM; up to 5 h incubation"}, "CD9P-1 [3]": {"test_system": "CD9P-1", "experiment": "CD9P-1 in homogenates of Matrigel implants enriched with NCI-H460 (Western blot)", "assay_type": "in vivo, mice", "settings": "10 mg/kg for 12 days", "protocol": "Analysis of the expression of CD151 and CD9P-1 were performed on western blots on homogenates of implants of Matrigel® enriched with NCI-H460. CD151 profile is characterized by 2 bands on western blots; one at 28 kDa corresponds to CD151 and another one at 26 kDa corresponding to a degraded product of CD151."}, "CD151": {"biological_target": "T3, CD151 (Homo sapiens, UniProt P48509)", "T3 sequence (P48509 1-253)": "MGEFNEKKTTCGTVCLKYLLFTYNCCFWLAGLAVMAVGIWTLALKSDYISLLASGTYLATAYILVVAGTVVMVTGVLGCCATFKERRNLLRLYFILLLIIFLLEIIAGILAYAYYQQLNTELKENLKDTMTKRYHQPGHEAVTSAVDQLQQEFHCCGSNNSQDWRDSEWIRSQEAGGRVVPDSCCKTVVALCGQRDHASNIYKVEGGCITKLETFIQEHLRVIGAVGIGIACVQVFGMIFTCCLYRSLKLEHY", "experiment": "CD151 level in HUVECs (Western blot, FACS)", "assay_type": "cell-based", "parameters": "endogenous in cells; host or cells: HUVEC", "settings": "P3 33 μM; different time points up to 5 h"}, "endostatin [4]": {"test_system": "endostatin", "experiment": "Endostatin production by HUVECs (ELISA)", "assay_type": "cell-based, human", "settings": "for concentration of endostatin in supernatants / increase of endostatin level: FIG. 16; for increase of endostatin production: 48 hrs, FIG. 14A", "protocol": "HUVECs were transfected with siRNA using transfecting agent GENJET according to the manufacturer's instructions. After 48 hrs of incubation, supernatants were collected, protein expression tested by western blots and endostatin quantified.\nEndostatin levels were quantified by ELISAs on lysates of HUVECs incubated at rising concentrations of P3 or PCT for 48 hrs.\nIn order to evaluate the role of metalloproteinases (MMPs) in endostatin production, a polyvalent inhibitor of MMPs, GM6001 was used. The concentration of endostatin in supernatants is at 6.2 ng/mg of protein of the lysates/48 hrs. […] GM6001 inhibits endostatin production induced by P3. MMPs might then be implicated in endostatin production induced by P3.\nHUVECs were incubated for 48 hrs in an EGM2-MV media with an anti-CD151 antibody (11G5a) or an irrelevant antibody (negative control unable to recognize any protein). Then endostatin levels were measured by ELISA in supernatants.\nHUVECs cells were transfected with specific siRNA of CD151 and CD9. Protein expression was analyzed in western blots. In parallel, endostatin levels were measured by ELISA in supernatants. […] Levels of endostatin in supernatant of HUVECs cells transfected with siRNA were measured. […] On the contrary, levels of endostatin increased at 9.4 ng/mg of protein lysates/48 hrs in HUVECs depleted in CD151 (FIG. 18B). CD151 is thus involved in the production of endostatin."}}, "note": "Not every detail of the peptide structures is certain; ends, links or a residue may be inferred. Ends that are not written are not given here."}
{"sequence": "GNYYCSVTPWVKS [P3]", "values": [{"measurement": "increase of endostatin in sera compared to mice treated with the solvent", "setting": "endostatin [1]", "result": 24, "unit": "%"}, {"measurement": "CD9P-1 expression (Western blot)", "setting": "CD9P-1 [2]", "result": "neither CD9 expression (FIG. 10B), CD81 (FIG. 10C), and CD9P-1 (FIG. 10D) nor integrin β1 are affected"}, {"measurement": "CD9 expression (Western blot)", "setting": "CD9", "result": "neither CD9 expression (FIG. 10B), CD81 (FIG. 10C), and CD9P-1 (FIG. 10D) nor integrin β1 are affected"}, {"measurement": "CD9P-1 level", "setting": "CD9P-1 [3]", "result": "does not change"}, {"measurement": "CD151 level (Western blot)", "setting": "CD151", "result": "significant decrease of CD151 from 2 hrs of incubation"}, {"measurement": "concentration of endostatin in supernatants", "setting": "endostatin [4]; 33 μM of P3", "result": "6.85 ng/mg of protein of the lysates/48 hrs"}, {"measurement": "increase of endostatin level", "setting": "endostatin [4]; 33 μM of P3", "result": 10, "unit": "%"}, {"measurement": "increase of endostatin production", "setting": "endostatin [4]; 33 μM", "result": 33, "unit": "%"}, {"measurement": "concentration of endostatin in supernatants", "setting": "endostatin [4]; 66 μM of P3", "result": "8.48 ng/mg of protein of the lysates/48 hrs"}, {"measurement": "increase of endostatin level", "setting": "endostatin [4]; 66 μM of P3", "result": 46, "unit": "%"}, {"measurement": "increase of endostatin production", "setting": "endostatin [4]; 66 μM", "result": 62, "unit": "%"}]}
